In article doi:10.1101/2024.02.21.578728:
No constants are given. Whether binding was seen depends on the method and setting. In cells and extracts the contact can be indirect. Some entries that bind do so weakly or less than the wild type.

Chains of the proteins cited; added tags and fusions are not shown.
UniProt Q02248: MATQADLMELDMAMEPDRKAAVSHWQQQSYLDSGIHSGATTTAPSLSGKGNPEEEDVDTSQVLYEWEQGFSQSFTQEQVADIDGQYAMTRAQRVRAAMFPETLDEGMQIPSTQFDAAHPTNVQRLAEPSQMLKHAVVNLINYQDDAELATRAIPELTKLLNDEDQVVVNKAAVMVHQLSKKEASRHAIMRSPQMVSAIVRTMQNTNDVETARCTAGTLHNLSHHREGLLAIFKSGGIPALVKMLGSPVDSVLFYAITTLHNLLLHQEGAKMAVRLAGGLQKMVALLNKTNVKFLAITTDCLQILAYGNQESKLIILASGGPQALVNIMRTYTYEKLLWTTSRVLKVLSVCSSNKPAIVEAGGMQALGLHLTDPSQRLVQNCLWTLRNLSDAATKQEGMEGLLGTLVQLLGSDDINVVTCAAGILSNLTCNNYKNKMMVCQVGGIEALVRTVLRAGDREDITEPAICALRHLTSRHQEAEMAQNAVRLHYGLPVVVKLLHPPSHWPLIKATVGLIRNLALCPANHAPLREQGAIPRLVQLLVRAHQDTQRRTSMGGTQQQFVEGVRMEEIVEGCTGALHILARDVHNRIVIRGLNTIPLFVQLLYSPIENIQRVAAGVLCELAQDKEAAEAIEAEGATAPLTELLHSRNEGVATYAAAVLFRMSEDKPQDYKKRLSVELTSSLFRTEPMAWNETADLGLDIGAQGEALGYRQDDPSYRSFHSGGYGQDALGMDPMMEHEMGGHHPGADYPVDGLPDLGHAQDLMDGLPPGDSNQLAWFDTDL

Target: T1, vinculin (mouse (endogenous in C2C12)) (UniProt Q64727)
T1 sequence: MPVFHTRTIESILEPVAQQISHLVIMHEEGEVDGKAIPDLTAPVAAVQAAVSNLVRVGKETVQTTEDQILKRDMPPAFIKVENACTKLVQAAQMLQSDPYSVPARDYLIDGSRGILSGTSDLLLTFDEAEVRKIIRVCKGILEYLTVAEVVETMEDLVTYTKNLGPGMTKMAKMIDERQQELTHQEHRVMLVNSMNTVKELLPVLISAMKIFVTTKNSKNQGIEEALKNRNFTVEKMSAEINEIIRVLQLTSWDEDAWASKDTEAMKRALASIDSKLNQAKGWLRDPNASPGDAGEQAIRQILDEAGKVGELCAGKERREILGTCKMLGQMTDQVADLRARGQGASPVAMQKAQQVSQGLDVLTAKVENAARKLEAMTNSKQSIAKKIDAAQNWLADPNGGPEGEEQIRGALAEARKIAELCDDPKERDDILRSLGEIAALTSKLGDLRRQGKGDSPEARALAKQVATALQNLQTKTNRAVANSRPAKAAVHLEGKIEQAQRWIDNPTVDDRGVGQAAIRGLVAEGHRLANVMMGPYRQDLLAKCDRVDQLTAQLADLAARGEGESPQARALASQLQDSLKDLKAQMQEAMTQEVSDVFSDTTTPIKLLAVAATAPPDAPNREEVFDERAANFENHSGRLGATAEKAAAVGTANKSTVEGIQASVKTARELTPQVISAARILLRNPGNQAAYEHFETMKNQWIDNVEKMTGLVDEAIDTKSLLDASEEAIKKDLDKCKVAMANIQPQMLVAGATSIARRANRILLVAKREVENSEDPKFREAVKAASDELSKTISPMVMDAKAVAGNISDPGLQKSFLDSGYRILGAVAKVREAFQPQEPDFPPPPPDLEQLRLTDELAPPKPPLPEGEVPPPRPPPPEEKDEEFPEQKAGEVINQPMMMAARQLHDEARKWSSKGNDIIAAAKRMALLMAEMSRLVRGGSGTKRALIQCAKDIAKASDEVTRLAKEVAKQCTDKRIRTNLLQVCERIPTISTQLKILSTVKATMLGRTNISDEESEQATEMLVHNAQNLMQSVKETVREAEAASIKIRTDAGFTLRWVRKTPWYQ
Test: co-IP

binding: binds
Substance: β-catenin (from UniProt Q02248 1-781)
